In PubChem BioAssay AID2685 (National Center for Advancing Translational Sciences (NCATS), 2010):
The other results are listed elsewhere or left out. Shown are side measurements of this screen, not its main read-out; they come without a call. Most of these compounds were active or inconclusive in the main read-out, so they are no random draw. The note in brackets gives the kind of curve behind each potency; many fits are weak.

Experiment: qHTS Assay for Lipid Storage Modulators in Drosophila S3 Cells;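 on cell number change: cells counted by Cell Tracker Red CMTPX staining in the red channel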
Settings: BODIPY lipid droplet fluorescence, 18-24 h; for cell number change: measured here: cell count max response, cells fed with added oleic acid
In short: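 Drosophila S3 cells got compounds at several concentrations plus oleic acid (400 uM solution). Laser-scanning cytometry with 488 nm excitation read lipid droplets at 500-530 nm and cells at 575-640 nm. Percent activity was relative to 20 uM Triacsin C.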

[1] = measured here: lipid fluorescence (Fed channel) AC50, cells fed with added oleic acid
[2] = measured here: cell number channel AC50, cells fed with added oleic acid

SMILES | cell number change | AC50 [1] | AC50 [2]
Cc1ccc(-n2c(SCC(=O)N/N=C/c3ccccc3OCC(=O)O)nc3ccccc3c2=O)cc1 | -0.382% | 29.1 µM [falling, single point] | 
Cc1ccc(N(Cc2ccccc2)C(=O)c2ccc(C)c(S(=O)(=O)N3CCOCC3)c2)cc1 | -21.1% | 0.0164 µM [falling, full curve] | 
O=C(c1cnccn1)N1CCN(S(=O)(=O)c2ccc3ccccc3c2)CC1 |  | 0.13 µM [rising, full curve, poor fit] | 0.517 µM [rising, full curve]
O=C(NCc1ccc2c(c1)OCO2)C1Cc2ccccc2CN1C(=O)c1ccco1 (stereo unspecified) | -17.3% | 0.291 µM [falling, full curve, poor fit] | 
Cc1cc(C)n(-c2ccc(C(=O)OCC(=O)NCc3ccc(F)cc3)cc2)n1 | 14.7% | 18.4 µM [rising, partial curve, poor fit] | 
COCCCNC(=O)c1cc(-c2cccnc2)nc2ccccc12 | 1.42% |  | 
CC12CCC(C(=O)N(CC(O)CN3CCN(Cc4ccccc4)CC3)C1=O)C2(C)C (stereo unspecified) | -15.7% | 32.6 µM [falling, single point] | 
Cc1sc2nc(C(C)Sc3nnc(C)n3-c3ccccc3)[nH]c(=O)c2c1C (stereo unspecified) | -5.6% | 0.231 µM [falling, full curve, poor fit] | 
CN1CCN(C(=O)Cn2c(C(F)(F)F)nc3ccccc32)CC1 | -99% |  | 29.1 µM [falling, single point]
COc1ccc(N(C(=O)c2ccn[nH]2)C(C(=O)NC2CCCC2)c2ccc(F)cc2)cc1 (stereo unspecified) | -12.7% | 29.1 µM [rising, single point] | 
COc1ccc(Cn2nnnc2C(c2ccncc2)N2CCOCC2)cc1 (stereo unspecified) | -176% | 6.51 µM [falling, single point] | 14.6 µM [falling, partial curve]
Cc1cc(N2CCN(c3ccccn3)CC2)n2c(nc3ccccc32)c1C#N | 14.1% | 2.06 µM [rising, single point] | 
Cc1ccc(C)c(OCc2ccc(C(=O)Nc3ccc([N+](=O)[O-])cn3)o2)c1 | -0.251% | 1.84 µM [rising, partial curve] | 
O=C(O)CCCCCn1c(SCC(=O)c2ccc(O)c(O)c2)nc2ccsc2c1=O | 3.69% | 0.461 µM [falling, single point] | 0.366 µM [falling, partial curve, poor fit]
Cn1nc(C(=O)NCCc2ccc(S(N)(=O)=O)cc2)c2c1-c1ccccc1S(=O)(=O)C2 | -6.75% |  | 
NC(=O)c1cc2cc(Cl)ccc2o/c1=N/NC(=O)c1cccs1 |  | 0.517 µM [rising, full curve, poor fit] | 
CCOC(=O)CNC(=O)CSc1nc(NCc2ccccc2)nc(N(C)C)n1 |  | 3.66 µM [rising, partial curve] | 2.59 µM [rising, partial curve]
CCOC(=O)C1=C(COC(=O)c2cccs2)NC(=O)NC1C (stereo unspecified) | 3.03% |  | 0.0731 µM [falling, partial curve, poor fit]
CC(C)c1ccc(NC(=O)c2ccc(NS(C)(=O)=O)cc2)cc1 | -3.49% |  | 
C=C(C)c1cccc(C(C)(C)NC(=O)Nc2ccccc2OCC)c1 |  | 23.1 µM [falling, partial curve, poor fit] | 1.3 µM [rising, partial curve]

SMILES | cell number change | AC50 [1] | AC50 [2]
CC(OC(=O)c1ccccc1O)C(=O)Nc1ccc(Cl)cn1 (stereo unspecified) | -7.78% | 0.103 µM [rising, single point] | 
CCC(CO)NC(=O)c1ccc(-c2nn(C)c(=O)c3ccccc23)cc1 (stereo unspecified) | 24.4% | 29.1 µM [rising, single point] | 
COc1ccc(OCc2cn3c(C)cc(C)nc3n2)cc1 | 20.2% | 9.2 µM [rising, partial curve] | 
CN1CCN(C(=O)c2cnn(-c3ccccc3)c2NC(=O)c2ccccc2F)CC1 |  |  | 4.61 µM [falling, single point]
O=C(CSc1nnc(-c2c[nH]c3ccccc23)o1)N1CCCCC1 | 3.76% | 0.731 µM [rising, full curve, poor fit] | 
N#Cc1ccc(CN2CCN(C(=O)CNC(=O)Cc3cccc4ccccc34)CC2)cc1 | 73.1% |  | 1.84 µM [rising, partial curve]
CCCCn1c(N)c(N(CC(C)C)C(=O)CCCSc2nncs2)c(=O)[nH]c1=O | -22% | 5.8 µM [falling, partial curve, poor fit] | 
CC1CCc2nn(CC(=O)Nc3c(F)cc(F)cc3Br)cc2C1 (stereo unspecified) | 22.8% | 29.1 µM [rising, single point] | 
OC(COCc1ccccc1)CN1CCCC1 (stereo unspecified) |  | 0.206 µM [falling, full curve, poor fit] | 6.51 µM [falling, single point]
O=C1c2ccccc2C(=O)c2c1cccc2-n1nnc2ccccc21 | 11.9% | 0.517 µM [rising, full curve, poor fit] | 
Cc1cc(C(=O)N/N=C/c2cccc([N+](=O)[O-])c2)c(C)o1 | 47.1% |  | 6.51 µM [rising, partial curve]
CCCn1c(=O)c(F)cn(Cc2ccc(OC)c([N+](=O)[O-])c2)c1=O | 7.76% |  | 
COc1ccc(C(=O)C2CCCN(C(=O)Cn3nc(C)cc3C)C2)cc1F (stereo unspecified) | 24.3% | 6.51 µM [rising, partial curve] | 
CC1CSc2nnc(CCc3ccccc3)n21 (stereo unspecified) | -3.09% | 29.1 µM [falling, single point] | 
COc1ccc(NC(=O)CC2C(=O)N(c3cccc(OC)c3)C(=O)N2C2CCCCC2)cc1 (stereo unspecified) | -16.2% |  | 
Cn1c(-c2ccc(F)cc2)cnc1SCC(=O)N1CCCCC1 | 20% | 32.6 µM [rising, single point] | 
CCOc1ccc(NC(=S)NNC(=O)CC(C)O)cc1 (stereo unspecified) | -34.4% |  | 
O=C(Nc1cnn(Cc2ccc(F)cc2)c1)c1cc2nc(-c3ccco3)cc(C(F)(F)F)n2n1 | 1.05% | 0.116 µM [falling, full curve, poor fit] | 
COC(=O)c1ccc(NC(=O)c2ccccc2-c2ccccc2C(=O)O)cc1 | 4.31% | 0.00411 µM [falling, full curve, poor fit] | 
Cc1ccc(-c2csc(NC(=O)c3ccc(F)cc3)c2C(=O)O)cc1 | 9.91% | 1.84 µM [rising, full curve, poor fit] | 

One compound at a time, as listed above:
CC1CCc2nn(CC(=O)Nc3c(F)cc(F)cc3Br)cc2C1 (stereo unspecified) is entered as cell number change: 22.8%; AC50 [1]: 29.1 µM [rising, single point]
Cc1cc(C(=O)N/N=C/c2cccc([N+](=O)[O-])c2)c(C)o1 is entered as cell number change: 47.1%; AC50 [2]: 6.51 µM [rising, partial curve]
CC(OC(=O)c1ccccc1O)C(=O)Nc1ccc(Cl)cn1 (stereo unspecified) is entered as cell number change: -7.78%; AC50 [1]: 0.103 µM [rising, single point]
COc1ccc(OCc2cn3c(C)cc(C)nc3n2)cc1 is entered as cell number change: 20.2%; AC50 [1]: 9.2 µM [rising, partial curve]

(continued)

SMILES | cell number change | AC50 [1] | AC50 [2]
CCNS(=O)(=O)c1ccc(CCC(=O)NCc2cccnc2)cc1 | 1.93% | 6.51 µM [falling, single point] | 
CC(C)CN(C(=O)COC(=O)CSc1ccc([N+](=O)[O-])cc1)C1CCS(=O)(=O)C1 (stereo unspecified) |  | 1.64 µM [rising, single point] | 6.51 µM [falling, single point]
O=[N+]([O-])c1ccccc1CN1CCN(Cc2ccc3ccccc3c2)CC1 | 48% |  | 1.84 µM [rising, partial curve]
O=C(CCN1C(=O)/C(=C/c2ccccc2Cl)SC1=S)N1CCCC1 | -29.7% | 29.1 µM [falling, partial curve, poor fit] | 
Clc1ccccc1Cn1nnc(-c2cccs2)n1 | -14.1% | 9.2 µM [rising, partial curve] | 
COc1ccc(CC(=O)NCc2n[nH]c(=S)n2-c2ccccc2)cc1 | -37.8% | 0.0731 µM [falling, full curve, poor fit] | 0.103 µM [falling, full curve, poor fit]
Cc1ccc(S(=O)(=O)NCCc2cc3ccc(C)c(C)c3[nH]c2=O)cc1 | -4.58% |  | 
Cc1occc1C(=O)Nc1cccc(Cn2cccn2)c1 | 1.63% | 16.4 µM [rising, single point] | 
Cc1ccc(-n2c(CCC(=O)O)ccc2-c2cccs2)cc1 | 14.2% |  | 
CCOC(=O)[C@H]1[C@H]2COc3ccc(C)cc3[C@@H]2N2C(=O)CN(Cc3ccc(Cl)cc3)C(=O)[C@@]12C | 2.89% | 0.259 µM [rising, full curve, poor fit] | 
c1ccc(CCn2nnnc2CN2CCCc3ccccc32)cc1 | -26% | 4.11 µM [falling, full curve, poor fit] | 0.00517 µM [falling, full curve, poor fit]
COc1ccc(-c2nc(-c3cccc(C)c3)[nH]c(=O)c2C#N)cc1 | -9.55% | 3.66 µM [falling, single point] | 
CCOc1ccc(-c2nnn(CC(=O)NCc3ccc4c(c3)OCO4)n2)cc1 | 17.6% | 10.3 µM [rising, partial curve, poor fit] | 
COc1ccc(C(=O)Nc2ccc3c(c2)OCO3)cc1OC | -12.6% | 0.13 µM [rising, full curve, poor fit] | 
Cc1ccc(N2C(=O)C3CCC(C)(C2=O)C3(C)C)cc1 (stereo unspecified) | 26.5% |  | 
COc1ccc(C(=O)NCCc2ccc(F)cc2)cc1OC | -15.3% | 2.31 µM [rising, single point] | 
CCCCc1nnc(NC(=O)CCc2ccccc2)s1 | 12.3% |  | 
Cc1c(C(=O)OCc2ccc(F)cc2)sc2nc3n(c(=O)c12)CCC3 |  | 0.082 µM [falling, full curve, poor fit] | 0.0731 µM [falling, full curve, poor fit]
Cc1c(NC(=O)C(C)Sc2nc3ccccc3c(=O)n2CCO)c(=O)n(-c2ccccc2)n1C (stereo unspecified) | -12.3% |  | 
CN(C)CCCN(C(=O)/C=C/c1cccs1)c1nc2c(F)cccc2s1 | -11.4% |  | 0.00517 µM [falling, full curve, poor fit]
